# Some of the results follow.
# Biological target: T1, OsSMF1 (Oryza sativa, UniProt Q6ZLB0 1-436)
# T1 sequence: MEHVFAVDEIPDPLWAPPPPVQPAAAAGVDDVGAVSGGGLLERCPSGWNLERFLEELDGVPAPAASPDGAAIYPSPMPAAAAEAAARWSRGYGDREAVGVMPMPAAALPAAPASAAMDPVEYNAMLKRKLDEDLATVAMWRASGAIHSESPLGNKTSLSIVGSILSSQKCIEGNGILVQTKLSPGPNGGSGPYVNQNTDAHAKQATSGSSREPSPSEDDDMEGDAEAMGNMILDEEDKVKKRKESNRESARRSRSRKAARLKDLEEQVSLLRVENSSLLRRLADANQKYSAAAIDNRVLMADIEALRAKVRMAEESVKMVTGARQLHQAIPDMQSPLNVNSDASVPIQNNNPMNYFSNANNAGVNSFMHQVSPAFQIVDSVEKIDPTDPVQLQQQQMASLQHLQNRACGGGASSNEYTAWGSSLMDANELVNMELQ
# Test: protein-binding microarray (RPBM); PBS, 2% BSA, 51.3 ng/ul salmon testes DNA, 50 uM zinc acetate, 200 nM TF, 25 C, 1 h; high values mean tight binding
# Settings: protein: recombinant; tags: N-terminal polyhistidine and DsRed monomer fusion (pET32a); chain copies: 2; label: CyDye5-dUTP incorporated in the synthesized complementary strand; 3' TTTTT single-stranded linker to array surface; dsDNA, one strand shown
# How it was run: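 Binding signal is defined as the fluorescence intensity of each feature in arbitrary units, read on an Axon 4000B scanner. Transcription factors with N-terminal polyhistidine and DsRed fusions came from E. coli BL21-CodonPlus and were purified on Ni–NTA. They were incubated at 200 nM for 1 h at 25 °C on a custom Agilent array that had been made double-stranded with Cy5-dUTP, with 50 µM zinc acetate present, and the array was washed.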
row,Sequence,binding signal
1,ATATATACATGTATGGTTCGAGTCATGACATAGACGGAAGCGGAGTCACCTAGTGCAG,3220 fluorescence intensity (a.u.)
2,TCAATACAAAAGGCCCATGTGGAGACTGAAACCCAACGTACGGAGTCACCTAGTGCAG,3540 fluorescence intensity (a.u.)
3,TTCCCTCTAAGTTATTGCCGTGTCGTTCTTATCTTAACCACGGAGTCACCTAGTGCAG,4050 fluorescence intensity (a.u.)
4,CCTGCATGCGTGGCTGCGCTCACTGTCGTTATTTGCTTTACGGAGTCACCTAGTGCAG,5080 fluorescence intensity (a.u.)
5,GAGACAGGAACACGCCTGTCAGCATGGACACAGTGGCAACCGGAGTCACCTAGTGCAG,3450 fluorescence intensity (a.u.)
6,CGAAGTCCACCTGCCACGGTTCTGGAGCTCCGCTCCTTTTCGGAGTCACCTAGTGCAG,3210 fluorescence intensity (a.u.)
7,TGGGAGAGGGTAGTAGGTGGGCCGAGGTACACACGTGGGGCGGAGTCACCTAGTGCAG,5560 fluorescence intensity (a.u.)
8,ACACCGTTACCATTAGTTAACAGAGTAGGGGCACGTGGCTCGGAGTCACCTAGTGCAG,4530 fluorescence intensity (a.u.)
9,GACAGCCAAATGTCTGCACACACACACACTCACAACTGTCCGGAGTCACCTAGTGCAG,5050 fluorescence intensity (a.u.)
10,GGCCACAGTCCGACCACGTATGCTGCCCTCCTCGCCCAATCGGAGTCACCTAGTGCAG,8920 fluorescence intensity (a.u.)
11,GCCAACGCCGTCCCCGTCACCTCGCGCCTGCGCCCTCGTCCGGAGTCACCTAGTGCAG,5360 fluorescence intensity (a.u.)
12,CGGATCCTCTCGGTATCACCTCGCGCCACGCAACCGCGGGCGGAGTCACCTAGTGCAG,4740 fluorescence intensity (a.u.)
13,TGTTGCCGTCTCCCTGCGCGATTCCGCCGCCGCCGCGATGCGGAGTCACCTAGTGCAG,26000 fluorescence intensity (a.u.)
14,AGCCCGCACGTTCGCCGCAATCCAGTTCCTGGCCCAACTACGGAGTCACCTAGTGCAG,3300 fluorescence intensity (a.u.)
15,AAATTCCTGATTTACAGTGATCCCAGTCACCCCGGTCTTCCGGAGTCACCTAGTGCAG,3350 fluorescence intensity (a.u.)
16,AGGCCTGCACGTCCCGTTCCAGGGCCTAGCTTGTTCCGCCCGGAGTCACCTAGTGCAG,24200 fluorescence intensity (a.u.)
17,AGCACTACTCCAACGCAGCAACCAACACGTACCTCCACATCGGAGTCACCTAGTGCAG,6420 fluorescence intensity (a.u.)
18,CATGCCAGTGACACGTACTGCAGGTGCAGTACAGCAGTGGCGGAGTCACCTAGTGCAG,5170 fluorescence intensity (a.u.)
19,AGACCAAACTATCTCCAACTTGACTCATTAGCAGCAAACACGGAGTCACCTAGTGCAG,3490 fluorescence intensity (a.u.)
20,TGCTTCAATTCGCGTGAACTCATCCAATCTGCATGCCGGTCGGAGTCACCTAGTGCAG,20200 fluorescence intensity (a.u.)
21,CCGAGGCCCAATAAATTATGGGGTTGGCTCCAATAAATTACGGAGTCACCTAGTGCAG,3940 fluorescence intensity (a.u.)
22,ATAAAGACCTAAGTTGCATAAATTGTCAAAGTTTAATCTGCGGAGTCACCTAGTGCAG,32600 fluorescence intensity (a.u.)
23,GTGGGTTCTTTGTGGGGTCTCTTATAGTTTTCACTGCCAGCGGAGTCACCTAGTGCAG,3610 fluorescence intensity (a.u.)

# Shown with tabs: entries from further up
row	Sequence	binding signal
15	AAATTCCTGATTTACAGTGATCCCAGTCACCCCGGTCTTCCGGAGTCACCTAGTGCAG	3350 fluorescence intensity (a.u.)
16	AGGCCTGCACGTCCCGTTCCAGGGCCTAGCTTGTTCCGCCCGGAGTCACCTAGTGCAG	24200 fluorescence intensity (a.u.)

# — PMC7819943, “Rice protein-binding microarrays: a tool to detect cis-acting elements near promoter regions in rice”
